These are yes or no findings as the source states them, for the method shown. Binding seen in cells or lysates may run through a third protein. Some binding calls cover weakened binding; strength is not graded here. For some assays here: Where a sequence is shown, tags or fusion partners need not be part of it.

Amino acid sequences for entries named in this document (tags omitted). A change or cut given only in a name is not applied to a line headed by its entry.
UniProt O75152, whole entry: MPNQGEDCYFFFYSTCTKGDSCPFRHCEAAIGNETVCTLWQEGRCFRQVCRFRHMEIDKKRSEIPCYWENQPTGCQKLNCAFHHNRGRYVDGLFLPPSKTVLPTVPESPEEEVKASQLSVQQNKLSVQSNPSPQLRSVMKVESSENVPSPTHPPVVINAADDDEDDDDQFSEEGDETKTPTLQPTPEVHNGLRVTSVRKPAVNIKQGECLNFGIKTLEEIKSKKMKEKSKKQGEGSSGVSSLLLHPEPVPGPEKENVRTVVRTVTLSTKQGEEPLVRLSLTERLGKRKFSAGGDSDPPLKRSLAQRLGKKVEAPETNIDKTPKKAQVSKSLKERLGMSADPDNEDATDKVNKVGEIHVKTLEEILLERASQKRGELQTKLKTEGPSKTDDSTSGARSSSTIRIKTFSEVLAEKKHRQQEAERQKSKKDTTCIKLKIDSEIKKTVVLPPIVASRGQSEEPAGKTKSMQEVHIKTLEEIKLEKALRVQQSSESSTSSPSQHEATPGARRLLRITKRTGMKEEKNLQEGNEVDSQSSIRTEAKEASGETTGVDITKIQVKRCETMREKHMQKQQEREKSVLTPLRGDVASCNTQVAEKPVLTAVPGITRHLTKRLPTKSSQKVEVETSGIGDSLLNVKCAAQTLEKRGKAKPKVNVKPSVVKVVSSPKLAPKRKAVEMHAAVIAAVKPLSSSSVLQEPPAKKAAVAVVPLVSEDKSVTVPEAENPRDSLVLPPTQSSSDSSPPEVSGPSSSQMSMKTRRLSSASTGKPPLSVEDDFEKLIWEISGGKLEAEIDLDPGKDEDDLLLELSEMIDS
UniProt O00505, whole entry: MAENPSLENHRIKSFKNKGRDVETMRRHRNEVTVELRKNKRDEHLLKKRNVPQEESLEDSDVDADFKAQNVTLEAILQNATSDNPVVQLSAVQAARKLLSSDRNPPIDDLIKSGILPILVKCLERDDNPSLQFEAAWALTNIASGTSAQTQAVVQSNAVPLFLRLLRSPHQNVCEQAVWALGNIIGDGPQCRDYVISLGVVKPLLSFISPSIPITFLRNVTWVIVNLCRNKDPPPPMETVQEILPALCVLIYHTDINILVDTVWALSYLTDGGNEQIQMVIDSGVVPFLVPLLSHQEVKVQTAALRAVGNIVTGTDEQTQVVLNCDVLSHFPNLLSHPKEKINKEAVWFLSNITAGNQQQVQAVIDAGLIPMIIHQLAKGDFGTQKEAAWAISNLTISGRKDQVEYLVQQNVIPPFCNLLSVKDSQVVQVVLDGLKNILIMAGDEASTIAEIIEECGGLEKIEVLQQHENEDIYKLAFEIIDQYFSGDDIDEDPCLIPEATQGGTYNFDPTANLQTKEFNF

This note sets out measurements from paper doi:10.1101/2023.03.09.531914.

Assay in all cases: co-IP
The target of assay [1] is ZC3H11A(wt)-Flag (expressed in HeLa cells) (human) (UniProt O75152).
The target in assay [2] is ZC3H11A(KR5>A/Δ661-699)-Flag (human) (UniProt O75152).
The target in a further assay is T1, PABPN1-Flag (UniProt Q86U42).
T1 sequence: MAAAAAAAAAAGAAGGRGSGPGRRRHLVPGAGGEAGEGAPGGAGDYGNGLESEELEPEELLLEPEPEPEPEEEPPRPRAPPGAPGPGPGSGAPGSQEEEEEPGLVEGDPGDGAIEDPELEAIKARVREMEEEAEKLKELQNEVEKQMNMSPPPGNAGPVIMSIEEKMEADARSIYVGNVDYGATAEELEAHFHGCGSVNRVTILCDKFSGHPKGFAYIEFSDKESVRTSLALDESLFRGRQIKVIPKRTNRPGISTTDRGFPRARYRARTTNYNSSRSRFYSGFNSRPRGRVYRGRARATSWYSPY

The target of assay [3] is ZC3H11A(wt)-Flag (expressed in HEK293T cells) (human) (UniProt O75152).
In assay [4] the target is ZC3H11A(3C>A)-Flag (human) (UniProt O75152).

Take “KPNA3 (endogenous, HeLa cells) (from UniProt O00505 1-521)”: the binding result in assay [1] is given as “binds”; in assay [2] it was “no binding”.

Regarding “ZC3H11A(3C>A)-HA (from UniProt O75152 1-810)”, the binding result with PABPN1-Flag is reported as “no binding”.

“ZC3H11A(C8A)-HA (from UniProt O75152 1-810)”: the binding result in the assay with PABPN1-Flag was “no binding”.

In the case of “ZC3H11A(C37A)-HA (from UniProt O75152 1-810)”, the binding entry with PABPN1-Flag is recorded as “binds”.

For “ZC3H11A(C66A)-HA (from UniProt O75152 1-810)”, the binding entry with PABPN1-Flag is recorded as “no binding”.

“ZC3H11A(wt)-HA (from UniProt O75152 1-810)”: in the assay with PABPN1-Flag, the binding result is reported as “binds”.

B1: THOC1-HA (protein, UniProt Q96FV9 1-657)
chain: MSPTPPLFSLPEARTRFTKSTREALNNKNIKPLLSTFSQVPGSENEKKCTLDQAFRGILEEEIINHSSCENVLAIISLAIGGVTEGICTASTPFVLLGDVLDCLPLDQCDTIFTFVEKNVATWKSNTFYSAGKNYLLRMCNDLLRRLSKSQNTVFCGRIQLFLARLFPLSEKSGLNLQSQFNLENVTVFNTNEQESTLGQKHTEDREEGMDVEEGEMGDEEAPTTCSIPIDYNLYRKFWSLQDYFRNPVQCYEKISWKTFLKYSEEVLAVFKSYKLDDTQASRKKMEELKTGGEHVYFAKFLTSEKLMDLQLSDSNFRRHILLQYLILFQYLKGQVKFKSSNYVLTDEQSLWIEDTTKSVYQLLSENPPDGERFSKMVEHILNTEENWNSWKNEGCPSFVKERTSDTKPTRIIRKRTAPEDFLGKGPTKKILMGNEELTRLWNLCPDNMEACKSETREHMPTLEEFFEEAIEQADPENMVENEYKAVNNSNYGWRALRLLARRSPHFFQPTNQQFKSLPEYLENMVIKLAKELPPPSEEIKTGEDEDEEDNDALLKENESPDVRRDKPVTGEQIEVFANKLGEQWKILAPYLEMKDSEIRQIECDSEDMKMRAKQLLVAWQDQEGVHATPENLINALNKSGLSDLAESLTNDNETNS
Regarding B1, the binding entry in assay [3] and in assay [4] was “binds” each time.

B2: THOC5-HA (protein, UniProt Q13769 1-683)
chain: MSSESSKKRKPKVIRSDGAPAEGKRNRSDTEQEGKYYSEEAEVDLRDPGRDYELYKYTCQELQRLMAEIQDLKSRGGKDVAIEIEERRIQSCVHFMTLKKLNRLAHIRLKKGRDQTHEAKQKVDAYHLQLQNLLYEVMHLQKEITKCLEFKSKHEEIDLVSLEEFYKEAPPDISKAEVTMGDPHQQTLARLDWELEQRKRLAEKYRECLSNKEKILKEIEVKKEYLSSLQPRLNSIMQASLPVQEYLFMPFDQAHKQYETARHLPPPLYVLFVQATAYGQACDKTLSVAIEGSVDEAKALFKPPEDSQDDESDSDAEEEQTTKRRRPTLGVQLDDKRKEMLKRHPLSVMLDLKCKDDSVLHLTFYYLMNLNIMTVKAKVTTAMELITPISAGDLLSPDSVLSCLYPGDHGKKTPNPANQYQFDKVGILTLSDYVLELGHPYLWVQKLGGLHFPKEQPQQTVIADHSLSASHMETTMKLLKTRVQSRLALHKQFASLEHGIVPVTSDCQYLFPAKVVSRLVKWVTVAHEDYMELHFTKDIVDAGLAGDTNLYYMALIERGTAKLQAAVVLNPGYSSIPPVFQLCLNWKGEKTNSNDDNIRAMEGEVNVCYKELCGPWPSHQLLTNQLQRLCVLLDVYLETESHDDSVEGPKEFPQEKMCLRLFRGPSRMKPFKYNHPQGFFSHR
With B2, the binding result in assay [3] and in assay [4] was “binds” each time.
